Here are results for 26 substances from patent publication US12612429 (dated 2026).

The data set in a line: general procedure: solution-phase peptide synthesis; HATU/DIEA.
Where [1] appears, read: late stage modification step, TFA salt.
[2] abbreviates: late stage modification step, formic acid salt.
[3] abbreviates: late stage modification step, TFA salt or formic acid salt.
Setting [4] is: coupling step, TFA salt or formic acid salt.

Take “(2S,3R)-2-((S)-2-(dimethylamino)-3-methylbutanamido)-3-hydroxy-N-((3R,4S,5S)-3-methoxy-1-((S)-2-((1R,2R)-1-methoxy-2-methyl-3-oxo-3-((2-(pyridin-2-yl)ethyl)amino)propyl)pyrrolidin-1-yl)-5-methyl-1-oxoheptan-4-yl)-N-methylbutanamide”: the step yield under setting [1] worked out at 3%.
For the substance “(2S,3S)-3-amino-2-((S)-2-(dimethylamino)-3-methylbutanamido)-N-((3R,4S,5S)-3-methoxy-1-((S)-2-((1R,2R)-1-methoxy-2-methyl-3-oxo-3-(((S)-2-phenyl-1-(thiazol-2-yl)ethyl)amino)propyl)pyrrolidin-1-yl)-5-methyl-1-oxoheptan-4-yl)-N-methylbutanamide”, the step yield under setting [2] is listed as 47%.
As to “(2S,3S)-3-amino-2-((S)-2-(dimethylamino)-3-methylbutanamido)-N-((3R,4S,5S)-3-methoxy-1-((S)-2-((1R,2R)-1-methoxy-2-methyl-3-oxo-3-(phenethylamino)propyl)pyrrolidin-1-yl)-5-methyl-1-oxoheptan-4-yl)-N-methylbutanamide”, the step yield under setting [2] is on record as 41%.
Still for that read-out and setting: in the case of “(2S,3S)-3-amino-N-((3R,4S,5S)-1-((S)-2-((1R,2R)-3-((2-chlorophenethyl)amino)-1-methoxy-2-methyl-3-oxopropyl)pyrrolidin-1-yl)-3-methoxy-5-methyl-1-oxoheptan-4-yl)-2-((S)-2-(dimethylamino)-3-methylbutanamido)-N-methylbutanamide” it was 30%; in that of “(2S,3S)-3-amino-N-((3R,4S,5S)-1-((S)-2-((1R,2R)-3-((4-chlorophenethyl)amino)-1-methoxy-2-methyl-3-oxopropyl)pyrrolidin-1-yl)-3-methoxy-5-methyl-1-oxoheptan-4-yl)-2-((S)-2-(dimethylamino)-3-methylbutanamido)-N-methylbutanamide”, 9%.
With “(2S,3S)-3-amino-N-((3R,4S,5S)-1-((S)-2-((1R,2R)-3-(((S)-1-(tert-butylamino)-1-oxo-3-phenylpropan-2-yl)amino)-1-methoxy-2-methyl-3-oxopropyl)pyrrolidin-1-yl)-3-methoxy-5-methyl-1-oxoheptan-4-yl)-2-((S)-2-(dimethylamino)-3-methylbutanamido)-N-methylbutanamide”, the step yield under setting [3] worked out at 18%.
As for “(2S,3S)-3-azido-2-((S)-2-(dimethylamino)-3-methylbutanamido)-N-((3R,4S,5S)-3-methoxy-1-((S)-2-((1R,2R)-1-methoxy-2-methyl-3-oxo-3-((2-(pyridin-2-yl)ethyl)amino)propyl)pyrrolidin-1-yl)-5-methyl-1-oxoheptan-4-yl)-N-methylbutanamide”, under setting [4], the step yield was 29%.
On to “(2S,3S)-3-azido-2-((S)-2-(dimethylamino)-3-methylbutanamido)-N-((3R,4S,5S)-3-methoxy-1-((S)-2-((1R,2R)-1-methoxy-2-methyl-3-oxo-3-(((S)-2-phenyl-1-(thiazol-2-yl)ethyl)amino)propyl)pyrrolidin-1-yl)-5-methyl-1-oxoheptan-4-yl)-N-methylbutanamide”, for which, where the note is “coupling step, TFA salt”, the step yield is listed as 18%.
Regarding “(2S,3S)-3-azido-2-((S)-2-(dimethylamino)-3-methylbutanamido)-N-((3R,4S,5S)-3-methoxy-1-((S)-2-((1R,2R)-1-methoxy-2-methyl-3-oxo-3-(phenethylamino)propyl)pyrrolidin-1-yl)-5-methyl-1-oxoheptan-4-yl)-N-methylbutanamide”, under setting [4], the step yield amounted to 49%.
For “(2S,3S)-3-azido-N-((3R,4S,5S)-1-((S)-2-((1R,2R)-3-((2-chlorophenethyl)amino)-1-methoxy-2-methyl-3-oxopropyl)pyrrolidin-1-yl)-3-methoxy-5-methyl-1-oxoheptan-4-yl)-2-((S)-2-(dimethylamino)-3-methylbutanamido)-N-methylbutanamide”, where the note is “coupling step, based on RSM, TFA salt or formic acid salt”, the step yield is reported as 32% based on RSM.
With “(2S,3S)-3-azido-N-((3R,4S,5S)-1-((S)-2-((1R,2R)-3-((4-chlorophenethyl)amino)-1-methoxy-2-methyl-3-oxopropyl)pyrrolidin-1-yl)-3-methoxy-5-methyl-1-oxoheptan-4-yl)-2-((S)-2-(dimethylamino)-3-methylbutanamido)-N-methylbutanamide”, the step yield under setting [4] worked out at 85%.
“(2S,3S)-3-azido-N-((3R,4S,5S)-3-methoxy-1-((S)-2-((1R,2R)-1-methoxy-2-methyl-3-oxo-3-(((S)-2-phenyl-1-(1H-tetrazol-5-yl)ethyl)amino)propyl)pyrrolidin-1-yl)-5-methyl-1-oxoheptan-4-yl)-N-methyl-2-((S)-3-methyl-2-(methylamino)butanamido)butanamide”: the step yield under setting [1] was 5%.
Same read-out and setting: under “(2S,3S)—N-((3R,4S,5S)-1-((S)-2-((1R,2R)-3-(((S)-1-amino-1-oxo-3-phenylpropan-2-yl)amino)-1-methoxy-2-methyl-3-oxopropyl)pyrrolidin-1-yl)-3-methoxy-5-methyl-1-oxoheptan-4-yl)-3-azido-N-methyl-2-((S)-3-methyl-2-(methylamino)butanamido)butanamide” stands 79%.
In the case of “((2R,3R)-3-((S)-1-((3R,4S,5S)-4-((S)-2-((S)-2-(dimethylamino)-3-hydroxypropanamido)-N,3-dimethylbutanamido)-3-methoxy-5-methylheptanoyl)pyrrolidin-2-yl)-3-methoxy-2-methylpropanoyl)-L-phenylalanine”, the step yield under setting [3] was 31%.
On to “(S)-2-((2R,3R)-3-((S)-1-((3R,4S,5S)-4-((2S,3R)-2-((S)-2-(dimethylamino)-3-methylbutanamido)-3-hydroxy-N-methylbutanamido)-3-methoxy-5-methylheptanoyl)pyrrolidin-2-yl)-3-methoxy-2-methylpropanamido)-3-phenylpropanoic acid”, for which the step yield under setting [3] was 47%.
On to “(S)-2-((2R,3R)-3-((S)-1-((3R,4S,5S)-4-((2S,3S)-3-amino-2-((S)-2-(dimethylamino)-3-methylbutanamido)-N-methylbutanamido)-3-methoxy-5-methylheptanoyl)pyrrolidin-2-yl)-3-methoxy-2-methylpropanamido)-3-phenylpropanoic acid”, for which the step yield under setting [3] was 21%.
In the case of “(S)-2-((2R,3R)-3-((S)-1-((3R,4S,5S)-4-((2S,3S)-3-azido-2-((S)-2-(dimethylamino)-3-methylbutanamido)-N-methylbutanamido)-3-methoxy-5-methylheptanoyl)pyrrolidin-2-yl)-3-methoxy-2-methylpropanamido)-3-phenylpropanoic acid”, the step yield under setting [3] is reported as 93%.
With “(S)-2-((2R,3R)-3-((S)-1-((3R,4S,5S)-4-((R)-2-((S)-2-(dimethylamino)-3-methylbutanamido)-3-mercapto-N-methylpropanamido)-3-methoxy-5-methylheptanoyl)pyrrolidin-2-yl)-3-methoxy-2-methylpropanamido)-3-phenylpropanoic acid”, the step yield under setting [3] was 25%.
In the case of “(S)-2-((2R,3R)-3-((S)-1-((3R,4S,5S)-4-((S)-2-((S)-2-(dimethylamino)-3-methylbutanamido)-3-hydroxy-N-methylpropanamido)-3-methoxy-5-methylheptanoyl)pyrrolidin-2-yl)-3-methoxy-2-methylpropanamido)-3-phenylpropanoic acid”, under setting [3], the step yield was determined as 28%.
For the substance “(S)-2-((S)-2-(aminooxy)-3-methylbutanamido)-N-((3R,4S,5S)-3-methoxy-1-((S)-2-((1R,2R)-1-methoxy-2-methyl-3-oxo-3-((2-(pyridin-2-yl)ethyl)amino)propyl)pyrrolidin-1-yl)-5-methyl-1-oxoheptan-4-yl)-N,3-dimethylbutanamide”, the step yield under setting [1] came to 43%.
In the case of “(S)-2-(dimethylamino)-N—((S)-3-hydroxy-1-(((3R,4S,5S)-3-methoxy-1-((S)-2-((1R,2R)-1-methoxy-2-methyl-3-oxo-3-((2-(pyridin-2-yl)ethyl)amino)propyl)pyrrolidin-1-yl)-5-methyl-1-oxoheptan-4-yl)(methyl)amino)-1-oxopropan-2-yl)-3-methylbutanamide”, the step yield under setting [1] came out at 5%.
Consider “(S)-4-amino-2-((S)-2-(dimethylamino)-3-methylbutanamido)-N-((3R,4S,5S)-1-((S)-2-((1R,2R)-3-(((1S,2R)-1-hydroxy-1-phenylpropan-2-yl)amino)-1-methoxy-2-methyl-3-oxopropyl)pyrrolidin-1-yl)-3-methoxy-5-methyl-1-oxoheptan-4-yl)-N-methylbutanamide”, for which, under setting [3], the step yield was found to be 14%.
For “(S)-4-amino-N-((3R,4S,5S)-1-((S)-2-((1R,2R)-3-((2-chlorophenethyl)amino)-1-methoxy-2-methyl-3-oxopropyl)pyrrolidin-1-yl)-3-methoxy-5-methyl-1-oxoheptan-4-yl)-2-((S)-2-(dimethylamino)-3-methylbutanamido)-N-methylbutanamide”, the step yield under setting [3] worked out at 34%.
As for “(S)-4-amino-N-((3R,4S,5S)-1-((S)-2-((1R,2R)-3-((4-chlorophenethyl)amino)-1-methoxy-2-methyl-3-oxopropyl)pyrrolidin-1-yl)-3-methoxy-5-methyl-1-oxoheptan-4-yl)-2-((S)-2-(dimethylamino)-3-methylbutanamido)-N-methylbutanamide”, the step yield under setting [3] worked out at 85%.
For the substance “(S)-methyl 2-((2R,3R)-3-((S)-1-((3R,4S,5S)-4-((2S,3R)-2-((S)-2-(dimethylamino)-3-methylbutanamido)-3-hydroxy-N-methylbutanamido)-3-methoxy-5-methylheptanoyl)pyrrolidin-2-yl)-3-methoxy-2-methylpropanamido)-3-phenylpropanoate”, under setting [1], the step yield is 43%.
For the substance “(S)-methyl 2-((2R,3R)-3-((S)-1-((3R,4S,5S)-4-((2S,3S)-3-amino-2-((S)-2-(dimethylamino)-3-methylbutanamido)-N-methylbutanamido)-3-methoxy-5-methylheptanoyl)pyrrolidin-2-yl)-3-methoxy-2-methylpropanamido)-3-phenylpropanoate”, the step yield under setting [3] is given as 62%.
